Substitutions are numbered along the chain they refer to. These are yes or no findings as the source states them, for the method shown. Binding seen in cells or lysates may run through a third protein. These calls come from enrichment with a bait or labelling near it, and not all partners need be listed. Where a sequence is shown, tags or fusion partners need not be part of it.
Experiments:
[1] = target: T1, C. elegans APE-1(H591Y), endogenous, tagged with 3xflag (and GFP) (C. elegans) (UniProt Q9XVN3); assay: affinity purification with mass spectrometry; 3xflag immunoprecipitation (M2 magnetic flag beads, elution with 3xflag peptide) from whole-worm lysates; MudPIT analysis
T1 sequence: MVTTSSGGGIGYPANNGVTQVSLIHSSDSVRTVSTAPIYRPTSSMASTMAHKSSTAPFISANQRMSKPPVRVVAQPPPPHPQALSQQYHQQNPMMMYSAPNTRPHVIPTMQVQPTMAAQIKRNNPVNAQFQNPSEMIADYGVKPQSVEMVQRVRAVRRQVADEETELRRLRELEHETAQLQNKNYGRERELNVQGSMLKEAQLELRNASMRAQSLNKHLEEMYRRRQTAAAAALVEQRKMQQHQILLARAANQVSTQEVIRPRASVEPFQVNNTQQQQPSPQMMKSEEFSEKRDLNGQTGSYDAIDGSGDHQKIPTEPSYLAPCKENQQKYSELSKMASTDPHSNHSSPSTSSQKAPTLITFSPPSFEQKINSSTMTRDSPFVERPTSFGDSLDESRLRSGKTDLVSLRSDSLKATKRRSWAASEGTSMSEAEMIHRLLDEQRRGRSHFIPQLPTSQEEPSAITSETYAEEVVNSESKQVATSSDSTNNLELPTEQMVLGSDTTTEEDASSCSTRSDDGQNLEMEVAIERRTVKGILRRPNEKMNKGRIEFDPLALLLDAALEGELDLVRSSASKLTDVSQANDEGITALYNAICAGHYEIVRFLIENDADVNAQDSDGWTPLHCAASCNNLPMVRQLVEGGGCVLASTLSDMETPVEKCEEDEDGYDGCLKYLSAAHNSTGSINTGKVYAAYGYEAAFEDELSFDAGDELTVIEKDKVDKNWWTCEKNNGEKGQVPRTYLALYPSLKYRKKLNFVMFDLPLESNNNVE

By UniProt entry, the sequences of proteins in these tests, tags left out.
UniProt P48727: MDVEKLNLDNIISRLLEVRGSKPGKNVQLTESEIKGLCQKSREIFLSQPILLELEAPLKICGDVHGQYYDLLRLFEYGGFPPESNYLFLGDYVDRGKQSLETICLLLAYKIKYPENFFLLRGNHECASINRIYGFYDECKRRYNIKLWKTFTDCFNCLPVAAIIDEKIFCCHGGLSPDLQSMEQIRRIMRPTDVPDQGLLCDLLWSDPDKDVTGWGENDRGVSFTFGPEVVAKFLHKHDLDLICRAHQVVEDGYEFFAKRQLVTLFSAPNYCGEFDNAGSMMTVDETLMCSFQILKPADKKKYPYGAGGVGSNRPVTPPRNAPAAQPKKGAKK

[2] = target: T2, C. elegans APE-1(N583K), endogenous, tagged with 3xflag (and GFP) (C. elegans) (UniProt Q9XVN3); assay: as above
T2 sequence: T1 sequence with N583K, Y591H

Question: How did the binding [1] turn out when “C. elegans GSP-2 (PP1 homolog) in whole-worm lysates of the MudPIT experiment (from UniProt P48727 1-333) (enzyme)” was run?
Answer: The binding was “binds”.

Question: What about the binding [2] of the same substance?
Answer: The binding was “binds”.
